This assay concerns BDF1 mice, s.c. Lewis lung carcinoma, T/C %. Kind of assay: NCI In Vivo Anticancer Drug Screen. Data for tumor model Lewis Lung Carcinoma (subcutaneous) in B6D2F1 (BDF1) mice. The procedure, abridged: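 First, mice carry a transplantable tumor. Next, groups receive either compound or vehicle. Finally, survival or tumor dimensions in the dosed animals are divided by the corresponding control figure.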

The mark [1] stands for this setting: T/C endpoint: median survival time, dose: 25.0 mg/kg/injection, schedule: Q01DX009 (ip), vehicle: saline, higher T/C = longer survival.
The mark [2] stands for this setting: T/C endpoint: mean tumor weight, dose: 1.3 mg/kg/injection, schedule: Q01DX011 (ip), vehicle: saline, higher T/C = larger tumour.
Setting [3] is: T/C endpoint: mean tumor weight, dose: 2.0 mg/kg/injection, schedule: Q01DX011 (ip), vehicle: saline, higher T/C = larger tumour.
The mark [4] stands for this setting: T/C endpoint: median survival time, dose: 64.0 mg/kg/injection, schedule: Q01DX005 (ip), vehicle: DMSO, higher T/C = longer survival.
[5] abbreviates: T/C endpoint: median survival time, dose: 128.0 mg/kg/injection, schedule: Q01DX005 (ip), vehicle: DMSO, higher T/C = longer survival.

The list is a part of this screen's results and no random one: it gathers tests that were run many times, whatever their T/C, doses with no T/C, and many T/C values between a quarter and a half above the control. Further doses and runs are listed elsewhere. T/C is the treated group as % of the vehicle group. Schedule codes are those of the source, read here as Q, the interval in days (D) or hours (H), X, the number of doses. Some entries give survivors of the animals treated and no T/C: the source files T/C as zero there, which appears to mark a toxic dose or a test without result, not a measured value. Some doses without a T/C left all or most animals alive at the check, yet need not have been tolerated: the source hardly ever lists a survival T/C far under the control, and the zero likely stands for such cases as well. Counts of survivors are from the toxicity check (mostly the fifth day) where no day follows; animals may have died later. Where survival is the endpoint, the PubChem record calls one and a half times the control and up active, and a quarter to a half above the control has no call in these data; cut-offs in other NCI protocols can differ.

Consider `O=NN(CCCl)C(=O)Nc1ccc2[nH]c3ccccc3c2c1`, for which the T/C is, setting by setting: (T/C endpoint: median survival time, dose: 32.5 mg/kg/injection, schedule: Q01DX009 (ip), vehicle: Klucel (hydroxypropylcellulose) (HPC), higher T/C = longer survival) 139 % of control; (T/C endpoint: median survival time, dose: 65.0 mg/kg/injection, schedule: Q01DX009 (ip), vehicle: Klucel (hydroxypropylcellulose) (HPC), higher T/C = longer survival) 128 % of control; (T/C endpoint: median survival time, dose: 130.0 mg/kg/injection, schedule: Q01DX009 (ip), vehicle: Klucel (hydroxypropylcellulose) (HPC), higher T/C = longer survival) 145 % of control. The survivor count (T/C endpoint: median survival time, dose: 260.0 mg/kg/injection, schedule: Q01DX009 (ip), vehicle: Klucel (hydroxypropylcellulose) (HPC), higher T/C = longer survival) is on record as 6 of 10.

For `C1=Cc2ccccc2CC1`, under “T/C endpoint: mean tumor weight, dose: 450.0 mg/kg/injection, schedule: Q01DX011 (ip), vehicle: other, higher T/C = larger tumour”, the survivor count was 2 of 6.

In the case of `CCOc1ccccc1C1N(Cc2ccc(OC)cc2)CCCN1Cc1ccc(OC)cc1`, where the note is “T/C endpoint: mean tumor weight, dose: 250.0 mg/kg/injection, schedule: Q01DX011 (ip), vehicle: other, evaluated on day 12, higher T/C = larger tumour”, the T/C was 137 % of control.

For `O=C(/C(=C\c1ccccc1)CN1CCOCC1)c1ccc(Br)cc1`, the survivor count (T/C endpoint: median survival time, dose: 12.5 mg/kg/injection, schedule: Q01DX009 (ip), vehicle: saline, higher T/C = longer survival) is on record as 10 of 10 and the survivor count under setting [1] is 10 of 10.

`O=c1n(CCCl)c(=O)n(CCCl)c(=O)n1CCCl`: the T/C (T/C endpoint: mean tumor weight, dose: 200.0 mg/kg/injection, schedule: Q01DX011 (ip), vehicle: other, evaluated on day 12, higher T/C = larger tumour) is 138 % of control. Moreover, the survivor count (T/C endpoint: mean tumor weight, dose: 800.0 mg/kg/injection, schedule: Q01DX011 (ip), vehicle: other, higher T/C = larger tumour) is on record as 0 of 6.

Regarding `CCCCn1cnc2c(=S)nc[nH]c21`, the survivor count (T/C endpoint: mean tumor weight, dose: 120.0 mg/kg/injection, schedule: Q01DX011 (ip), vehicle: water, higher T/C = larger tumour) is recorded as 2 of 6.

On to `CN(C)Cc1c[nH]c2ccccc12`, for which the survivor count is, setting by setting: (T/C endpoint: mean tumor weight, dose: 180.0 mg/kg/injection, schedule: Q01DX011 (ip), vehicle: carboxymethylcellulose (CMC), higher T/C = larger tumour) 0 of 6; (T/C endpoint: mean tumor weight, dose: 360.0 mg/kg/injection, schedule: Q01DX011 (ip), vehicle: carboxymethylcellulose (CMC), higher T/C = larger tumour) 0 of 6.

With `CCC[CH2][Sn]1([CH2]CCC)[O]OC(c2ccc(C)cc2)[O]1` (centres undefined), for the setting “T/C endpoint: median survival time, dose: 0.38 mg/kg/injection, schedule: Q01DX009 (ip), vehicle: saline with Tween-80, higher T/C = longer survival”, the T/C was 125 % of control. The survivor count is on record as 2 of 10 (T/C endpoint: median survival time, dose: 6.25 mg/kg/injection, schedule: Q01DX009 (ip), vehicle: saline with Tween-80, higher T/C = longer survival); 0 of 10 (T/C endpoint: median survival time, dose: 12.5 mg/kg/injection, schedule: Q01DX009 (ip), vehicle: saline with Tween-80, higher T/C = longer survival); 0 of 10 (T/C endpoint: median survival time, dose: 25.0 mg/kg/injection, schedule: Q01DX009 (ip), vehicle: saline with Tween-80, higher T/C = longer survival).

For the compound `CC(=O)OC(C)(C)/C=C/C(=O)[C@](C)(O)[C@H]1[C@H](O)C[C@@]2(C)[C@@H]3CC=C4[C@@H](CC[C@H](O)C4(C)C)[C@]3(CO)C(=O)C[C@]12C`, the survivor count is reported as 3 of 6 (T/C endpoint: mean tumor weight, dose: 0.86 mg/kg/injection, schedule: Q01DX011 (ip), vehicle: saline, higher T/C = larger tumour); 2 of 6 under setting [2]; 0 of 6 under setting [3].

With `CC1=C2C(=C[C@@](C)(CO)[C@@H]2O)C(=O)[C@](C)(O)C12CC2`, the survivor count is reported as 0 of 6 (T/C endpoint: mean tumor weight, dose: 0.9 mg/kg/injection, schedule: Q01DX011 (ip), vehicle: saline, higher T/C = larger tumour); 0 of 6 under setting [2]; 0 of 6 under setting [3].

As for `COc1cc2c(cc1Oc1c(Oc3c(O)c(OC)cc4c3C(CC(C)C)N(C)CC4)c(OC)cc3c1C(CC(C)C)N(C)CC3)C(CC(C)C)N(C)CC2` (centres undefined), the survivor count (T/C endpoint: median survival time, dose: 100.0 mg/kg/injection, schedule: Q01DX009 (ip), vehicle: Klucel (hydroxypropylcellulose) (HPC), higher T/C = longer survival) is 4 of 10.

Take `CCCOP(=S)(N1CC1)N1CC1`: the T/C by setting is: under setting [1], 145 % of control; (T/C endpoint: median survival time, dose: 50.0 mg/kg/injection, schedule: Q01DX009 (ip), vehicle: saline, higher T/C = longer survival) 137 % of control. For the same compound, the survivor count is 10 of 10 (T/C endpoint: median survival time, dose: 150.0 mg/kg/injection, schedule: Q01DX009 (ip), vehicle: Klucel (hydroxypropylcellulose) (HPC), higher T/C = longer survival) and 10 of 10 (T/C endpoint: median survival time, dose: 200.0 mg/kg/injection, schedule: Q01DX009 (ip), vehicle: saline, higher T/C = longer survival).

`CC(=O)[O][Hg][c]1c(C)c(C)c(C)c(C)c1C`: the survivor count (T/C endpoint: median survival time, dose: 1.5 mg/kg/injection, schedule: Q01DX009 (ip), vehicle: Klucel (hydroxypropylcellulose) (HPC), higher T/C = longer survival) is on record as 10 of 10; the survivor count (T/C endpoint: median survival time, dose: 3.0 mg/kg/injection, schedule: Q01DX009 (ip), vehicle: Klucel (hydroxypropylcellulose) (HPC), higher T/C = longer survival) is given as 10 of 10; the survivor count (T/C endpoint: median survival time, dose: 12.5 mg/kg/injection, schedule: Q01DX009 (ip), vehicle: Klucel (hydroxypropylcellulose) (HPC), higher T/C = longer survival) was 8 of 10; the survivor count (T/C endpoint: median survival time, dose: 25.0 mg/kg/injection, schedule: Q01DX009 (ip), vehicle: Klucel (hydroxypropylcellulose) (HPC), higher T/C = longer survival) was 5 of 10.

In the case of `CC1=C(/C=C/C(C)=C/C=C/C(C)=C/C=O)C(C)(C)CCC1`, the T/C is 137 % of control (T/C endpoint: median survival time, dose: 4.0 mg/kg/injection, schedule: Q01DX005 (ip), vehicle: saline with Tween-80, higher T/C = longer survival); 134 % of control (T/C endpoint: median survival time, dose: 8.0 mg/kg/injection, schedule: Q01DX005 (ip), vehicle: saline with Tween-80, higher T/C = longer survival); 127 % of control (T/C endpoint: median survival time, dose: 16.0 mg/kg/injection, schedule: Q01DX005 (ip), vehicle: saline with Tween-80, higher T/C = longer survival); 137 % of control (T/C endpoint: median survival time, dose: 32.0 mg/kg/injection, schedule: Q01DX005 (ip), vehicle: saline with Tween-80, higher T/C = longer survival); 145 % of control under setting [4]; 125 % of control (T/C endpoint: median survival time, dose: 64.0 mg/kg/injection, schedule: Q01DX005 (ip), vehicle: saline with Tween-80, higher T/C = longer survival). Under setting [5], the T/C was 146 % of control. The survivor count (T/C endpoint: median survival time, dose: 8.0 mg/kg/injection, schedule: Q01DX005 (ip), vehicle: saline + alcohol, higher T/C = longer survival) is 10 of 10; the survivor count (T/C endpoint: median survival time, dose: 16.0 mg/kg/injection, schedule: Q01DX005 (ip), vehicle: DMSO, higher T/C = longer survival) is listed as 3 of 10; the survivor count (T/C endpoint: median survival time, dose: 16.0 mg/kg/injection, schedule: Q01DX005 (ip), vehicle: saline + alcohol, higher T/C = longer survival) is recorded as 10 of 10; the survivor count (T/C endpoint: median survival time, dose: 32.0 mg/kg/injection, schedule: Q01DX005 (ip), vehicle: DMSO, higher T/C = longer survival) is listed as 0 of 10; the survivor count (T/C endpoint: median survival time, dose: 32.0 mg/kg/injection, schedule: Q01DX005 (ip), vehicle: saline + alcohol, higher T/C = longer survival) is given as 10 of 10; the survivor count under setting [4] is recorded as 0 of 10. For the same compound, the survivor count by setting is: (T/C endpoint: median survival time, dose: 64.0 mg/kg/injection, schedule: Q01DX005 (ip), vehicle: saline + alcohol, higher T/C = longer survival) 9 of 9; under setting [5], 0 of 10; (T/C endpoint: median survival time, dose: 128.0 mg/kg/injection, schedule: Q01DX005 (ip), vehicle: saline + alcohol, higher T/C = longer survival) 8 of 10; (T/C endpoint: median survival time, dose: 128.0 mg/kg/injection, schedule: Q01DX005 (ip), vehicle: saline with Tween-80, higher T/C = longer survival) 3 of 10; (T/C endpoint: median survival time, dose: 256.0 mg/kg/injection, schedule: Q01DX005 (ip), vehicle: DMSO, higher T/C = longer survival) 0 of 10; (T/C endpoint: median survival time, dose: 256.0 mg/kg/injection, schedule: Q01DX005 (ip), vehicle: saline + alcohol, higher T/C = longer survival) 0 of 10. Also, for the setting “T/C endpoint: median survival time, dose: 256.0 mg/kg/injection, schedule: Q01DX005 (ip), vehicle: saline with Tween-80, higher T/C = longer survival”, the survivor count was 0 of 10.

Take `CN[C@H]1CCc2cc(OC)c(OC)c(OC)c2-c2ccc(OC)c(=O)cc21`: the survivor count by setting is: (T/C endpoint: mean tumor weight, dose: 11.0 mg/kg/injection, schedule: Q01DX011 (ip), vehicle: saline, higher T/C = larger tumour) 3 of 6; (T/C endpoint: mean tumor weight, dose: 16.0 mg/kg/injection, schedule: Q01DX011 (ip), vehicle: saline, higher T/C = larger tumour) 2 of 6.

`Cc1cc(C)c(NC(=O)N(CCCl)N=O)cc1C`: the survivor count (T/C endpoint: median survival time, dose: 100.0 mg/kg/injection, schedule: Q01DX009 (ip), vehicle: other, higher T/C = longer survival) was 6 of 10.

As for `O=C(Nc1ccc(C(=O)O)cc1)Oc1ccc(N(CCCl)CCCl)cc1`, the survivor count (T/C endpoint: median survival time, dose: 50.0 mg/kg/injection, schedule: Q01DX009 (ip), vehicle: Klucel (hydroxypropylcellulose) (HPC), higher T/C = longer survival) was 10 of 10.

As to `C[C@]12CCC(=O)C=C1CC[C@@H]1[C@@H]2C(=O)C[C@]2(C)C3=CC(=O)O[C@H]3C[C@@H]12`, the survivor count (T/C endpoint: median survival time, dose: 50.0 mg/kg/injection, schedule: Q01DX009 (ip), vehicle: saline with Tween-80, higher T/C = longer survival) was 8 of 10.

In the case of `Nc1nc2nc[nH]c2c(=O)[nH]1`, the survivor count by setting is: (T/C endpoint: mean tumor weight, dose: 200.0 mg/kg/injection, schedule: Q01DX011 (ip), vehicle: saline, higher T/C = larger tumour) 3 of 6; (T/C endpoint: mean tumor weight, dose: 400.0 mg/kg/injection, schedule: Q01DX011 (ip), vehicle: saline, higher T/C = larger tumour) 0 of 6.

The record behind these values is PubChem BioAssay AID270 (DTP/NCI, 2004).
